These results are taken from the supplement of paper PMC6411743.

The chains behind the UniProt entries cited, without tags or fusion partners. Where a name states a change or a piece, a line headed by the entry shows the natural chain unless it says otherwise.
UniProt Q9H3H5: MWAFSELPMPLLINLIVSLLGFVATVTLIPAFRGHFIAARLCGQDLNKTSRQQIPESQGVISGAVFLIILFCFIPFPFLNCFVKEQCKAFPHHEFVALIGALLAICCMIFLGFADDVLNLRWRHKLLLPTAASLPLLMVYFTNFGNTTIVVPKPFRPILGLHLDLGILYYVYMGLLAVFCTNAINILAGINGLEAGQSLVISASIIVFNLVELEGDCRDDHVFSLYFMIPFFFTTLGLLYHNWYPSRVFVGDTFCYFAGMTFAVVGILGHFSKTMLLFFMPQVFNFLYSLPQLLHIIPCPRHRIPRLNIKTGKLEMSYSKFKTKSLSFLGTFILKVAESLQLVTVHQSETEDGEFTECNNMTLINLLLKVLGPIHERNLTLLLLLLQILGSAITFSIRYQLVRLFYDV
UniProt Q9HAB8: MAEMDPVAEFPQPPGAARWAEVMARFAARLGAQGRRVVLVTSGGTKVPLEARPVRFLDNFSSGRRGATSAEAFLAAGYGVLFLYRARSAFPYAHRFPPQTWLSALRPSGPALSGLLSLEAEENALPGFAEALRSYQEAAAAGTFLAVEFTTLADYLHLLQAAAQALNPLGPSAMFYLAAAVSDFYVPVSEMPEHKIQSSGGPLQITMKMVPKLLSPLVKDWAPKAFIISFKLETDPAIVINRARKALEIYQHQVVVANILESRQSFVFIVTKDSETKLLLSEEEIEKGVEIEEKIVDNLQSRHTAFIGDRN
UniProt Q9H0R4: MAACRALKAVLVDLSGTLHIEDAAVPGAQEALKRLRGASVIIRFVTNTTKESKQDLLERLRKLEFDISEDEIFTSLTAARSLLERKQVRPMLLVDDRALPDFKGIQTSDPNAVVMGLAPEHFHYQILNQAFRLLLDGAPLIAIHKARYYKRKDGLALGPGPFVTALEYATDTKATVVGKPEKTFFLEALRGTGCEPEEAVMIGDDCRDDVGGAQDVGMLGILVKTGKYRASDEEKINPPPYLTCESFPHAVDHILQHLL
UniProt Q9C0I1: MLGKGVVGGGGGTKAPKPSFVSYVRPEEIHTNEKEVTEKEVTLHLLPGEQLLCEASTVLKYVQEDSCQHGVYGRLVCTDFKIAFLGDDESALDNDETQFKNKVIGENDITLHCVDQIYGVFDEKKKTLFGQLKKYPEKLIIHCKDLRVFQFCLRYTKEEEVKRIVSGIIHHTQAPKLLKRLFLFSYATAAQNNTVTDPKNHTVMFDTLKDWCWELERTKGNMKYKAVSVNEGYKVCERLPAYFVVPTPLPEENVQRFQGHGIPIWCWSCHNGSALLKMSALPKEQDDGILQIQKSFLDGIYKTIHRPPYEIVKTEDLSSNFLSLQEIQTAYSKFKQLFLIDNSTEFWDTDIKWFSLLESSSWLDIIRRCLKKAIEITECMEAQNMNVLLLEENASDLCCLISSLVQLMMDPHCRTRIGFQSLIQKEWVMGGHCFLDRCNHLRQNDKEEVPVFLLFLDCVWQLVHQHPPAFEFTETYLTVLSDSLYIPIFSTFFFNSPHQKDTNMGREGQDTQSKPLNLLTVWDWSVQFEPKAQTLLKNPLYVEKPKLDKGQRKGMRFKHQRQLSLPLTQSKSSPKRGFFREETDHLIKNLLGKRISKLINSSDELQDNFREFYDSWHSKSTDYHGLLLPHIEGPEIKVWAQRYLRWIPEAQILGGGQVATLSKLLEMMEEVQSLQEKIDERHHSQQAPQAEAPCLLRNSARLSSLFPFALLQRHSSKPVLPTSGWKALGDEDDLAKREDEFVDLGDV
UniProt Q9H0L4: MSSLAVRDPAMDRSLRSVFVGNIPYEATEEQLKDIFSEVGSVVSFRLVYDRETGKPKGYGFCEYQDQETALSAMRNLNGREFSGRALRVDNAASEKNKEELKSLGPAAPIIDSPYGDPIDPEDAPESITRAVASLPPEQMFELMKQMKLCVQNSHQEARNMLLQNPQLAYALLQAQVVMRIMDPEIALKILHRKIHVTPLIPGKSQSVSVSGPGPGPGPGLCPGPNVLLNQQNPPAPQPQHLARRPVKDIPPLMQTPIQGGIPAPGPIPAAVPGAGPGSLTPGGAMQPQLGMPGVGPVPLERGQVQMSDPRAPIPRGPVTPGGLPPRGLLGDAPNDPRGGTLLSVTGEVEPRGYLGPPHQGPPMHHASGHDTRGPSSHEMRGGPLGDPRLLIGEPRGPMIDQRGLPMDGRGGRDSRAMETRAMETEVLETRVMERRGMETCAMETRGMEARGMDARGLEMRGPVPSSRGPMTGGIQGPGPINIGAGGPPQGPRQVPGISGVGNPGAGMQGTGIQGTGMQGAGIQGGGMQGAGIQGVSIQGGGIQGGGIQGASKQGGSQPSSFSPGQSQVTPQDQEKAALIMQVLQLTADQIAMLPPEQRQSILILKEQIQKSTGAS
UniProt Q9H6E4: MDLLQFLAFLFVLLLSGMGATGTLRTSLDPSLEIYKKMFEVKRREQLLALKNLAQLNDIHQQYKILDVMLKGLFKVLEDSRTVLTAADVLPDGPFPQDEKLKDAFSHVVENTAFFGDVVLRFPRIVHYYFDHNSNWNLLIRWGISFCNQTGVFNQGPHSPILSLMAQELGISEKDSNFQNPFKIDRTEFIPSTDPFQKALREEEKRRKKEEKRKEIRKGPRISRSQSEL
UniProt Q9H3P7: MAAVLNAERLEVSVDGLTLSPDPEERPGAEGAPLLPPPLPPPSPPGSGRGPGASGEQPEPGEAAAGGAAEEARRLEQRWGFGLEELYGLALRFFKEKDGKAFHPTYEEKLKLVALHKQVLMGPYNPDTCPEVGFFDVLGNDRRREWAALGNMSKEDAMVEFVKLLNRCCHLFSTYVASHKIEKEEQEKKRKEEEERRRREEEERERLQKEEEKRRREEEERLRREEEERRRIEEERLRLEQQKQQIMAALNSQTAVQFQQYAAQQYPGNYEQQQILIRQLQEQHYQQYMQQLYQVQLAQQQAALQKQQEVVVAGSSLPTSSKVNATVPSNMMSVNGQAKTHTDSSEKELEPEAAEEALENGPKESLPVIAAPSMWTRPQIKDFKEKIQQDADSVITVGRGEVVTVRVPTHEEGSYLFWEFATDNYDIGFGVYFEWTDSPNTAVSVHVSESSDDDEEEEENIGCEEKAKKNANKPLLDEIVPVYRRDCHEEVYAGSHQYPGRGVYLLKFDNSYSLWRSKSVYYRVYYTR
UniProt Q9NP50: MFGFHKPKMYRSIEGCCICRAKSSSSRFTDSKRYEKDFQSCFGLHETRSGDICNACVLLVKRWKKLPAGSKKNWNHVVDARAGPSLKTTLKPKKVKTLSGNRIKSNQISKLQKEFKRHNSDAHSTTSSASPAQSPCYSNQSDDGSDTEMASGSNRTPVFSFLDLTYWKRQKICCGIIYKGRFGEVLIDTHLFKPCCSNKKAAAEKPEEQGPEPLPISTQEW
UniProt Q9H8H0: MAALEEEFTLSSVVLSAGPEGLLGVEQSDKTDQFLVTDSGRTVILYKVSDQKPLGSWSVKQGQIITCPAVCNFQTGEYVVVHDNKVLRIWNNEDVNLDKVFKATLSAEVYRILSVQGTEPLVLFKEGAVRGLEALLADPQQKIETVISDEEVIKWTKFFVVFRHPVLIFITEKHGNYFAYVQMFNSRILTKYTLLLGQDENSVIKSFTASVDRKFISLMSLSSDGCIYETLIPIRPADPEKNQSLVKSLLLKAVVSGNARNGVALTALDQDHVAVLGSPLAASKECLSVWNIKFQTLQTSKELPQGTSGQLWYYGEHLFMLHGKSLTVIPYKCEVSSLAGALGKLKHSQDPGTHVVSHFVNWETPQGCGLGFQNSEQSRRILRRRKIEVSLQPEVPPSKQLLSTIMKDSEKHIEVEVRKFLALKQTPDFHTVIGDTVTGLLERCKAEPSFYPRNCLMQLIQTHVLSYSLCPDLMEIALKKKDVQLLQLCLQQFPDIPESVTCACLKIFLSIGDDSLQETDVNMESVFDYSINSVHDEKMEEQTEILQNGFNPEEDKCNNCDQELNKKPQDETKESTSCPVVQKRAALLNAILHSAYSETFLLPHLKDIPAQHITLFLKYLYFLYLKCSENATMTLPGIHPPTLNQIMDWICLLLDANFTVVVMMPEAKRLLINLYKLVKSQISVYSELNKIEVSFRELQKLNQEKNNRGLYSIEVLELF
UniProt Q9H6F5: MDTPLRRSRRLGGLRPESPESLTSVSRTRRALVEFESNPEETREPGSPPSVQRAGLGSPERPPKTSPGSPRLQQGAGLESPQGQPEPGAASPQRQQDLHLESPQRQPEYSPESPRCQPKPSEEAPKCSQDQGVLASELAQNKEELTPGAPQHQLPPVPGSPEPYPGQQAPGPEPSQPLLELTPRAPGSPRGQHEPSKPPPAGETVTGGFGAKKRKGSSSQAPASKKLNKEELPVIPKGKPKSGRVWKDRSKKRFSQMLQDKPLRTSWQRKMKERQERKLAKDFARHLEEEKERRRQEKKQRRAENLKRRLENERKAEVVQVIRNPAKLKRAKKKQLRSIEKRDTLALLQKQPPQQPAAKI
UniProt Q9H4Z3: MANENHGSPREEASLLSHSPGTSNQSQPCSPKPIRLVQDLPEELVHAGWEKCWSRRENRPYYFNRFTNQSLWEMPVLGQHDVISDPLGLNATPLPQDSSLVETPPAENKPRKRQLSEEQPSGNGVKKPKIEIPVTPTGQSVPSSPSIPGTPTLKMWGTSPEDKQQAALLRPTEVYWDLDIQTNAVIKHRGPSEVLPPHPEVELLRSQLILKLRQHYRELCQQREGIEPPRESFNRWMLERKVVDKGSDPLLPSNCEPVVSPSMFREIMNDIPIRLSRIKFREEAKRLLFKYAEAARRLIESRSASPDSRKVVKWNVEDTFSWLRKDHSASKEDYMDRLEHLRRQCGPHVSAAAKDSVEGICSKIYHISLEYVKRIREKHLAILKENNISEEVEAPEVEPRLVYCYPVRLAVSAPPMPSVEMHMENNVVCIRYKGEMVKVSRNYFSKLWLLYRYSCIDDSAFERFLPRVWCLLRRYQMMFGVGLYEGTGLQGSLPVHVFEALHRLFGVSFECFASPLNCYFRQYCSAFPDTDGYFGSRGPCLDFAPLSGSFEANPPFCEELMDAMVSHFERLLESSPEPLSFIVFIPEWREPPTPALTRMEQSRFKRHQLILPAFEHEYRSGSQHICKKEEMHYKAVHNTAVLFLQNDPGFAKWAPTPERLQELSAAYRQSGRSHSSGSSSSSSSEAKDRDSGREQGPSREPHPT

± gives the standard deviation of the averaged measurements. The entries are a selection whose mix differs from that of the whole data set. Most entries show no effect beyond the scatter of the controls.

Compound in this test: Nc1ncnc2c1ncn2[C@@H]1O[C@H](COP(=O)(O)OP(=O)(O)OP(=O)(O)O)[C@@H](O)[C@H]1O [adenosine triphosphate]
Put plainly: NP40-soluble protein abundance relative to vehicle (solubility fold change) (ratio); higher = more soluble protein in presence of ATP. The settings on record: concentration: 0.5mM. The essentials:
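Eight concentrations, 0.1 to 10 mM, were tested on Jurkat crude lysate for 10 min at room temperature and then 3 min at 37 °C, in three independent experiments. The lysate was solubilised with 0.8% NP40 and benzonase, ultracentrifuged, and the supernatant TMT-labelled for LC-MS/MS. Each value is the fold change against the detergent-processed vehicle in its own replicate, from vsn-normalised intensities.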
On to UniProt Q9H3H5 and related entries, for which the NP40-soluble protein abundance is 1.02 ± 0.081. Then PPCS (UniProt Q9HAB8), with 0.987 ± 0.02; and UniProt Q9H0R4 and related entries, with 1.02 ± 0.033.

Turning to UniProt Q9C0I1, the NP40-soluble protein abundance amounted to 1.02 ± 0.097. Then CSTF2T (UniProt Q9H0L4), with 1 ± 0.0094.

Regarding CCDC134 (UniProt Q9H6E4), the NP40-soluble protein abundance is 0.956 ± 0.1.

Consider ACBD3 (UniProt Q9H3P7), for which the NP40-soluble protein abundance was 1.05 ± 0.071.

In the case of UniProt Q9NP50, the NP40-soluble protein abundance was 0.979 ± 0.046. To NOL11 (UniProt Q9H8H0) belongs 1.12 ± 0.077.

For the target CCDC86 (UniProt Q9H6F5), the NP40-soluble protein abundance worked out at 1.04 ± 0.071. Then PCIF1 (UniProt Q9H4Z3), with 1 ± 0.034.
